Results are given in words; binding and its absence hold for the method and conditions named. Some binding calls cover weakened binding; strength is not graded here.
Biological target: hIL-1RI protein (human) (UniProt P14778)
Test: SPR (Biacore), CM5 chip, fusion protein immobilised by amine coupling, receptor injected as analyte (labelled IL1R1-Fc on the sheet)

By UniProt entry, the sequences of proteins in these tests, tags left out. Residues count along the entry.
UniProt P14778, residues 18-332: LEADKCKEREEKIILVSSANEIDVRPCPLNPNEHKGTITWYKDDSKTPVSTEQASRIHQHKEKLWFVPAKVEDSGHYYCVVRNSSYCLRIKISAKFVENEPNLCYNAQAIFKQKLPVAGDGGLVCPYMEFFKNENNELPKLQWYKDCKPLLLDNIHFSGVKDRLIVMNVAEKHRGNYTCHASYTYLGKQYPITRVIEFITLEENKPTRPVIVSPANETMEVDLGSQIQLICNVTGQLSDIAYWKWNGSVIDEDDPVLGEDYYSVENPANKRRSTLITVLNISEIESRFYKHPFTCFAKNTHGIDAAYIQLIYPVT
UniProt P18510, residues 26-177: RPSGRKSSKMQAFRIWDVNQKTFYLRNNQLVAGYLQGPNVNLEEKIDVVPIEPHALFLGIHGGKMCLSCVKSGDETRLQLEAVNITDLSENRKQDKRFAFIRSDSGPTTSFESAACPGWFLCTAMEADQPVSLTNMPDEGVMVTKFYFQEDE

binding: binds
Substance: hIL-1RA fused with Fc from IgG1 (from UniProt P18510 26-177) (Fc fusion)
